Results taken from paper doi:10.1101/2020.09.11.292599.
Results are given in words; binding and its absence hold for the method and conditions named. Binding seen in cells or lysates may run through a third protein. Here binding means that the protein was enriched with, or labelled near, the bait; the list need not be complete.

The chains behind the UniProt entries cited, without tags or fusion partners.
UniProt Q55247: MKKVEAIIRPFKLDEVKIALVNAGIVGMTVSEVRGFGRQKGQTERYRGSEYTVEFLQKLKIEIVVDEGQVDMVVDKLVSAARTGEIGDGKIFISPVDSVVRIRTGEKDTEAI

Molecular target: T1, PirC-mCitrine (Synechocystis sp. PCC 6803) (UniProt P77971)
T1 sequence: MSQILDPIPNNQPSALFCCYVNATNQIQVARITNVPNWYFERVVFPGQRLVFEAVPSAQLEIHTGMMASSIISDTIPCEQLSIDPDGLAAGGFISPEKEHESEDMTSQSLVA
Test: affinity purification with mass spectrometry

PII (endogenous) (from UniProt Q55247 1-112)
binding: binds
